Among the data in US20030082682A1 are binding values, retold here.

Amino acid sequences for entries named in this document (tags omitted). Residues count along the entry.
UniProt P37231, residues 204-505: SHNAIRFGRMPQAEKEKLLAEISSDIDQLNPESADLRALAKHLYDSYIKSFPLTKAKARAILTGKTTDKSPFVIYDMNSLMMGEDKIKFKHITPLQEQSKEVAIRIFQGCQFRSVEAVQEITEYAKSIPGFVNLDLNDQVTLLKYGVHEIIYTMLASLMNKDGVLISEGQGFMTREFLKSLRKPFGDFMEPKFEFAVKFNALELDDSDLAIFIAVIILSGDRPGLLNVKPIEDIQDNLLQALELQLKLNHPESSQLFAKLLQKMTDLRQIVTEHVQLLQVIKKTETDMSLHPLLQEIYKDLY

The assay deals with PPARg (UniProt P37231). Put plainly: two-hybrid, directed analysis against a panel of nuclear hormone receptors.

Results are given in words; binding and its absence hold for the method and conditions named. Some results given as binding are weak or reduced against the parent protein; the word gives no strength.

B1: RXR interacting protein, RB204 (protein)
chain: MGATIECWPAQTKYPVPVFSTFVLTGAAGDKVYGAALQFYEAFPRARLSERQARALGLLSAVERGRALGGRAVRSRRAIAVLSRWPAFPAFRAFLTFLYRYSVSGPHRLPLEAHISHFIHNVPFPSPQRPRILVQMSPYDNLLLCQPVSSPLPLSGASFLQLLQSLGPELAITLLLAVLTEHKLLVHSLRPDLLTSVCEALVSMIFPLHWQCPYIPLCPLVLADVLSAPVPFIVGIHSSYFDLHDPPADVICVDLDTNTLFQTEEKKLLSPRTLPRRPYKVLLATLTNLYQQLDQTYTGPEEEASLEFLLTDYEAVCGRRARLEREVQGAFLRFMACLLKGYRVFLRPLTQAPSEGARDVDNLFFLQGFLKSRERSSHKLYSQLLHTQMFSQFIEECSFGSARHAALEFFDSCVEKVHPEQEKPEPTPLVELEELSGSELTVFITPPEEPALPEGSESTPQYCYDGFPELRAELFESLQEQPGALPVPGPSRSAPSSPAPRRTKQEMKVAQRMAQKSAAVPELWARCLLGHCYGLWFLCLPAYVRSAPSRVQALHTAYHVLRQMESGKVVLPDEVCYRVLMQLCSHYGQPVLSVRVMLEMRQAGIVPNTITYGYYNKAVLESKWPSGTPGGRLRWAKLRNVVLGAAQFRQPLRERQQQQQQQQQQQQQQQQEQVSAHQEAGSSQAEPYLERPSPTRPLQRQTTWAGRSLRDPASPPGRLVKSGSLGSARGAQPTVEAGVAHMIEALGVLEPRGSPVPWHDGSLSDLSLTGEEPLPGGSPGGSGSALSAQSTEALEGLSGRGPKAGGRQDEAGTPRRGLGARLQQLLTPSRHSPASRIPPPELPPDLPPPARRSPMDSLLHPRERPGSTASESSASLGSEWDLSESSLSNLSLRRSSERLSDTPGSFQSPSLEILLSSCSLCRACDSLVYDEEIMAGWAPDDSNLNTTCPFCACPFVPLLSVQTLDSRPSVPSPKSAGASGSKDAPVPGGPGPVLSDRRLCLALDEPQLCNGHMGGASRRVESGAWAYLSPLVLRKELESLVENEGSEVLALPELPSAHPIIFWNLLWYFQRLRLPSILPGLVLASCDGPSHSQAPSPWLTPDPASVQVRLLWDVLTPDPNSCPPLYVLWRVHSQIPQRVVWPGPVPASLSLALLESVLRHVGLNEVHKAVGLLLETLGPPPTGLHLQRGIYREILFLTMAALGKDHVDIVAFDKKYKSAFNKLASSMGKEELRHRRAQMPTPKAIDCRKCFGAPPEC
As for B1, the binding entry is “binds”.
